From the supplement of paper PMC10849652
The other results are listed elsewhere or left out.

Amino acid sequences for entries named in this document (tags omitted). A change or cut given only in a name is not applied to a line headed by its entry.
UniProt O95139, whole entry, looked up: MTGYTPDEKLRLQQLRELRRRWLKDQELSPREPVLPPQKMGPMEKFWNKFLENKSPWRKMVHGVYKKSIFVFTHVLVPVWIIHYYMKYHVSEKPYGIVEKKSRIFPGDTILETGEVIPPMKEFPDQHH
UniProt Q9UFN0: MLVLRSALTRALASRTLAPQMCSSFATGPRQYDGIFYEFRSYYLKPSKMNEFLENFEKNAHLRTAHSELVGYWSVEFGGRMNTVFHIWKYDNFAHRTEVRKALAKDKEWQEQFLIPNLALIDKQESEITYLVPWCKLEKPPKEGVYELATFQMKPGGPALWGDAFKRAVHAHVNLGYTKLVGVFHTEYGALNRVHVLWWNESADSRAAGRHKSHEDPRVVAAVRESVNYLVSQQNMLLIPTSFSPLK
UniProt Q9NYR9: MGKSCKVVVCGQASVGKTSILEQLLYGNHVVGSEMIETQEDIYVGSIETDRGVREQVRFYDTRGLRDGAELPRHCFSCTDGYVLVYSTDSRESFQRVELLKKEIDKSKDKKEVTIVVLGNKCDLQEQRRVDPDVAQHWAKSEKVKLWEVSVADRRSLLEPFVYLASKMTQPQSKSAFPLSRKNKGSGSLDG
UniProt O43674, whole entry, looked up: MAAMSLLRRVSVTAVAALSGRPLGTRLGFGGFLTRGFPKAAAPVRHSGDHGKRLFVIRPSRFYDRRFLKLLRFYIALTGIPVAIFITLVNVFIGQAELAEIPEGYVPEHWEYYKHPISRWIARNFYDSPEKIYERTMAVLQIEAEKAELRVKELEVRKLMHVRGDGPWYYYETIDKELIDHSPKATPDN
UniProt P21359: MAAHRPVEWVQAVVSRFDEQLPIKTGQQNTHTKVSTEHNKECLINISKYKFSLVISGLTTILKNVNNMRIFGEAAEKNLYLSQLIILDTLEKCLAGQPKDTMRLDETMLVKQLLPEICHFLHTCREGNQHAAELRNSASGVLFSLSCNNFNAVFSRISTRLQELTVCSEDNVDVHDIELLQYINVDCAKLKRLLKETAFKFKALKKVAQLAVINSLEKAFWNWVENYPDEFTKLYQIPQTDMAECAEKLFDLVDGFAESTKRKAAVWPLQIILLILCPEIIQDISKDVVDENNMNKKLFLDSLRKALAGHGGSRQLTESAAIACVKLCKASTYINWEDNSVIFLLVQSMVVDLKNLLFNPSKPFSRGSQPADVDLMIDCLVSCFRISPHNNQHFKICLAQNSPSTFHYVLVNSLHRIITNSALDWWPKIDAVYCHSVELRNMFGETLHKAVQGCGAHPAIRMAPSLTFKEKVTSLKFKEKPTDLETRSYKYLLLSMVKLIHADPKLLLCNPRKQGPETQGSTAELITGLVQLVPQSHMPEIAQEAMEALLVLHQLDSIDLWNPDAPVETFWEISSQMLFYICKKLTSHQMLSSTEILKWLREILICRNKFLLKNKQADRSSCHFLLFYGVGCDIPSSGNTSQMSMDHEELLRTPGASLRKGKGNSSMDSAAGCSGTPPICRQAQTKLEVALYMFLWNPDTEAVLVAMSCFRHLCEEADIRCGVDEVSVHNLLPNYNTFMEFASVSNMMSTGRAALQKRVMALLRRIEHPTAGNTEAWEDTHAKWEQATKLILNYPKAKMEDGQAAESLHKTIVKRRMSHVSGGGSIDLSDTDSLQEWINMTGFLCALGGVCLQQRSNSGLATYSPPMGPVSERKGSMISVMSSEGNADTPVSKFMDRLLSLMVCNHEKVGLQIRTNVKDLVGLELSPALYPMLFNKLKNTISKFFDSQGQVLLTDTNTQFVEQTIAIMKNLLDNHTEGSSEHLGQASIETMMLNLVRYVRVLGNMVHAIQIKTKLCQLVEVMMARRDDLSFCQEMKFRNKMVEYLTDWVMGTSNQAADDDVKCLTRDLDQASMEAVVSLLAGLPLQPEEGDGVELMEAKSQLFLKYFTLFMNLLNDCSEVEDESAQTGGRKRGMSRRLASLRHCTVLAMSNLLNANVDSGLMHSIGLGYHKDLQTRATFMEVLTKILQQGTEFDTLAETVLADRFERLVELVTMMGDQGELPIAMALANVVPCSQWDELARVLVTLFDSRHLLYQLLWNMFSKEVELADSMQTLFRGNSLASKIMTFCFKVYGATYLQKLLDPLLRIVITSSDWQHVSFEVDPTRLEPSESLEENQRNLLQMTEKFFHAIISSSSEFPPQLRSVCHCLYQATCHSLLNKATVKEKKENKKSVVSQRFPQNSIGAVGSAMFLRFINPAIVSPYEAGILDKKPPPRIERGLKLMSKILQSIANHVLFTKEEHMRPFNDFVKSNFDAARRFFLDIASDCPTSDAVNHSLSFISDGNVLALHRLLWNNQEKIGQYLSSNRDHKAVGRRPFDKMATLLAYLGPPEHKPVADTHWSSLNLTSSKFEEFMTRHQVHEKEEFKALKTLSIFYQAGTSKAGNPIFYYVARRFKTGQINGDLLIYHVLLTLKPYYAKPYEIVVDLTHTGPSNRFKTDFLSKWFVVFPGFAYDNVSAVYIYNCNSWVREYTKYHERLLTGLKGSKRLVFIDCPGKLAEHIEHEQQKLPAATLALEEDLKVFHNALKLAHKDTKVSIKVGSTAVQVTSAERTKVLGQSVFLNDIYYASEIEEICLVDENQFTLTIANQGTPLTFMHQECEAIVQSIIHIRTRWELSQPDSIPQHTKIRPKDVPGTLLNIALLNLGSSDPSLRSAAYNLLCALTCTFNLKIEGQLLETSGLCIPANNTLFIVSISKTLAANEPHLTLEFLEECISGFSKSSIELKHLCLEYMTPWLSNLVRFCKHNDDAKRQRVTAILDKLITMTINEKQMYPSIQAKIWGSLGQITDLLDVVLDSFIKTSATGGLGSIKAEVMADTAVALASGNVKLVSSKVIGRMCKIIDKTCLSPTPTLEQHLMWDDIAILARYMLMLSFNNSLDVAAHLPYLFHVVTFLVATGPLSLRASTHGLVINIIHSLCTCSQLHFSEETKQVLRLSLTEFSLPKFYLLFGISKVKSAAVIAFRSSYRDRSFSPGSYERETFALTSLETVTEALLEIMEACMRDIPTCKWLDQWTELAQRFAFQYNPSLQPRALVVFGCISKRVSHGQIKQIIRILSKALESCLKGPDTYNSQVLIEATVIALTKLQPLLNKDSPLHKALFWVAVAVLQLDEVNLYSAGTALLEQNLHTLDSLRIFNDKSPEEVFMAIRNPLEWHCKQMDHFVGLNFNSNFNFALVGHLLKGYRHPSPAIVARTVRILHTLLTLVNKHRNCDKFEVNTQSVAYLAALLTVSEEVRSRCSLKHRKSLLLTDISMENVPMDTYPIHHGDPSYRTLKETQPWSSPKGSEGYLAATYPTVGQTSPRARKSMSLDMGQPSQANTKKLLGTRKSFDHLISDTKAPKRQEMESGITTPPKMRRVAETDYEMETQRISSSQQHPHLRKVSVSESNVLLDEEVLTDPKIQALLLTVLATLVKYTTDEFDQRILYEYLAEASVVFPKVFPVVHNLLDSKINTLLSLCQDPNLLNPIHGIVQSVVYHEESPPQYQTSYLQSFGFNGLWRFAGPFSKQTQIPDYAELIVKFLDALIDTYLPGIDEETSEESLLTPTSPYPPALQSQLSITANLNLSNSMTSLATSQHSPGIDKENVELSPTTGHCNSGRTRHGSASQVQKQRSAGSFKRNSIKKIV
UniProt Q16621: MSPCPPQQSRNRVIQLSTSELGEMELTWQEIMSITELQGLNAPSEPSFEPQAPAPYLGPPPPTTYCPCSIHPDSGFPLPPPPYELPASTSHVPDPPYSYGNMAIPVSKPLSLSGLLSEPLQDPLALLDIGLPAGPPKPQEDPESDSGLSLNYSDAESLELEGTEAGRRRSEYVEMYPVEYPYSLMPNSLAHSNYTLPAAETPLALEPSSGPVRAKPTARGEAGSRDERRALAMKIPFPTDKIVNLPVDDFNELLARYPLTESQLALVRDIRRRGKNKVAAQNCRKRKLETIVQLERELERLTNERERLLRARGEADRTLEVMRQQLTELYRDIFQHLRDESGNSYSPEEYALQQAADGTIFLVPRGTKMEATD
UniProt Q8TDX7: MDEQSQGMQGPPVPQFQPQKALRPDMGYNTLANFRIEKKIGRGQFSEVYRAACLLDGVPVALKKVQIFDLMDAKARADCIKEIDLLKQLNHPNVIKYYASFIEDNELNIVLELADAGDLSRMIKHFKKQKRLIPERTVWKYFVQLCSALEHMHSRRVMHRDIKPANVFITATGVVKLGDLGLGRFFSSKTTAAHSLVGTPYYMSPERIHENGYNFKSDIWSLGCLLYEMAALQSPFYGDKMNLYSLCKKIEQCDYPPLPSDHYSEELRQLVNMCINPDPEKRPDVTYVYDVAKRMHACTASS
UniProt Q86X76: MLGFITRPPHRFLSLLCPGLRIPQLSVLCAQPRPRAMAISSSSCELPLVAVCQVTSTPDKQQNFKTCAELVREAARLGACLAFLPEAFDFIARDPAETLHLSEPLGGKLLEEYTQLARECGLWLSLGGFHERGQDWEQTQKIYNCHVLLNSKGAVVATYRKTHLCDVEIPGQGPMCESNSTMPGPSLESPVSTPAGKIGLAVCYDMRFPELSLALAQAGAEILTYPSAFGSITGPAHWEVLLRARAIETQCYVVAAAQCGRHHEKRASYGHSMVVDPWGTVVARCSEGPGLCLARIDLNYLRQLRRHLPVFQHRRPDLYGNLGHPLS
UniProt Q16795, whole entry, looked up: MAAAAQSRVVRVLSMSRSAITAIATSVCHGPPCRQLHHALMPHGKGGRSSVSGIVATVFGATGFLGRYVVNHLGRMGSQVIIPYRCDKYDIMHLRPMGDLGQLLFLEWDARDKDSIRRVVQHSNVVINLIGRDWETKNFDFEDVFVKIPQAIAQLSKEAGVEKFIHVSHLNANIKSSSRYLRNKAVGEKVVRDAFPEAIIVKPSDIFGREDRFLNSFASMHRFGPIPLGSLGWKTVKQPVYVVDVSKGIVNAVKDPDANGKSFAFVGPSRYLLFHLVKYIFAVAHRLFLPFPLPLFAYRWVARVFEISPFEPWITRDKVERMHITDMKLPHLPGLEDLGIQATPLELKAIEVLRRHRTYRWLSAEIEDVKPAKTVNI
UniProt Q9BU61: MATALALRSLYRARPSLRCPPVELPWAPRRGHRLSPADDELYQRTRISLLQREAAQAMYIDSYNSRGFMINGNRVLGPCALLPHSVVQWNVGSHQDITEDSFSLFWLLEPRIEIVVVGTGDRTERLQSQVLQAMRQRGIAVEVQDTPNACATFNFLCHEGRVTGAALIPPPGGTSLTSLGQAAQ
UniProt Q12968: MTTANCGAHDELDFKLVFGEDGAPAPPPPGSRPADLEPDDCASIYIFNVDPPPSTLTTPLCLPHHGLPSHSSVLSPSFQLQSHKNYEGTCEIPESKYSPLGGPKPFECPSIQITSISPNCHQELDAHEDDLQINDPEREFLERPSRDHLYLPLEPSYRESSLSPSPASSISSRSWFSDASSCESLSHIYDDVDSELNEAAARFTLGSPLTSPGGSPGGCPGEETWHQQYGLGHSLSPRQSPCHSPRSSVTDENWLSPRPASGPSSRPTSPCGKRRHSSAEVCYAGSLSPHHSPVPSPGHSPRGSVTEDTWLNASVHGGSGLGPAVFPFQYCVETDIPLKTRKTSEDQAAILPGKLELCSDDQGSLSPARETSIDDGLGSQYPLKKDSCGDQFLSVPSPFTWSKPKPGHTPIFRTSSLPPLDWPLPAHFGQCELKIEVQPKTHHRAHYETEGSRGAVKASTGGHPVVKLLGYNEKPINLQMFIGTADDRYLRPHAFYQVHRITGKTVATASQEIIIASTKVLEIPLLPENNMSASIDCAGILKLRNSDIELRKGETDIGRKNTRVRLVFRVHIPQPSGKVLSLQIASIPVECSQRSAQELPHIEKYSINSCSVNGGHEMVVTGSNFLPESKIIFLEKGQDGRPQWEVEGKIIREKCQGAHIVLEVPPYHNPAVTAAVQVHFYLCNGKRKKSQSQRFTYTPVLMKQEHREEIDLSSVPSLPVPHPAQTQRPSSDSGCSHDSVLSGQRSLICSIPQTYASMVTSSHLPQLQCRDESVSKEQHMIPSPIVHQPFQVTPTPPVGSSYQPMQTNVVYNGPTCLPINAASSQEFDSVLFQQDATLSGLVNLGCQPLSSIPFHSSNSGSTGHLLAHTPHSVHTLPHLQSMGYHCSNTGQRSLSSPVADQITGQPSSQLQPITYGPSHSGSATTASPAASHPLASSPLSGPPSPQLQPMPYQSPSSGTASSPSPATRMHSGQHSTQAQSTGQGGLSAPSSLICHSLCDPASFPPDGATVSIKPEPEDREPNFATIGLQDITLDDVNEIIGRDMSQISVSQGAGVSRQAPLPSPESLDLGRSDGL
UniProt O75323: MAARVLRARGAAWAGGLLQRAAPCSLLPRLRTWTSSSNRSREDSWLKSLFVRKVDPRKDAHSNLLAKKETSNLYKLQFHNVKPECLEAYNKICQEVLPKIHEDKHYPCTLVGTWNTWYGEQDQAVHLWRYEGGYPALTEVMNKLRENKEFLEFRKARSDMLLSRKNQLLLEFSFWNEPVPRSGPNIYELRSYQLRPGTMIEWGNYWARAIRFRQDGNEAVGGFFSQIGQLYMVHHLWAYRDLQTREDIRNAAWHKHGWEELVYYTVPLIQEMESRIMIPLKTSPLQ

Assays:
Experiment in all cases: log2 fold change, soluble protein after heating vs DMSO (PISA); higher = thermal stabilisation; K562 lysate, 10 uM; active = over 0.2 and 3.5 SD of the protein, either way, in both replicates (recomputed)
[1] = compound: C=CC(=O)N1CCC[C@@H](n2nc(-c3ccc(Oc4ccccc4)cc3)c3c(N)ncnc32)C1 [ibrutinib]
How it was run: (§1)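 A 30 min treatment with 10 μM compound was applied to crude K562 extract at 1 mg/mL protein in PBS pH 7.4 with 1 mM MgCl2. Heating for 3 min spanned 48°C-58°C, after which aliquots were pooled, adjusted to 0.5% NP-40 at 4°C and spun at 21,000xg for 90 min. TMTpro 16plex LC-MS/MS of the supernatant, with channel sums equalised, gave values recorded as log-two fold change in thermal stability against solvent controls, from duplicates.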

[2] = compound: CC(=O)c1cnc2ccc(-c3cc(Cl)c(O)c(Cl)c3)nc2c1N[C@H]1CC[C@H](CN(C)C)CC1
How it was run: as §1

[3] = compound: CC(C)(C)Cn1c(N)nc2ccc(-c3[nH]c(C(C)(C)C)nc3-c3ccc(F)cc3)nc21 [ralimetinib]
How it was run: as §1

[4] = compound: CC(C)(O)CC(=O)NCCn1ccc2ncnc(Nc3ccc(Oc4cccc(C(F)(F)F)c4)c(Cl)c3)c21
How it was run: as §1

[5] = compound: CC(C)C1=C2N=C(C=C(N2N=C1)NCC3=CC=CC=C3)NCCCCCCN
How it was run: as §1

[6] = compound: CC1=C(C(CC(=O)N1)C2=CC=C(C=C2)C(F)(F)F)C(=O)NC3=C(C=C4C(=C3)C=NN4)F
How it was run: as §1

[7] = compound: CC1=C(C2=C(C=C1)C(=O)C3=CC=CC=C3N2CCCN)C
How it was run: as §1

[8] = compound: CC1=C(C=C(C=C1)NC(=O)C2=CC(=CC=C2)C(C)(C)C#N)NC3=CC4=C(C=C3)N=CN(C4=O)C
How it was run: as §1

[9] = compound: CC1=C(C=C(C=C1)NC(=O)C2=CC(=CC=C2)N(C)C)NC(=O)C3=CC=C(C=C3)O
How it was run: as §1

[10] = compound: CC1=CC=C(C=C1)SC2=C3C=C(SC3=CN=C2)C(=O)N
How it was run: as §1

[11] = compound: CCCS(=O)(=O)Nc1ccc(F)c(C(=O)c2c[nH]c3ncc(-c4ccc(Cl)cc4)cc23)c1F [vemurafenib]
How it was run: as §1

[12] = compound: CCCS(=O)(=O)Nc1ccc(F)c(C(=O)c2c[nH]c3ncc(Cl)cc23)c1F
How it was run: as §1

[13] = compound: CCN(CCCOc1ccc2c(Nc3cc(CC(=O)Nc4cccc(F)c4)[nH]n3)ncnc2c1)CCOP(=O)(O)O [barasertib]
How it was run: as §1

[14] = compound: CC[C@@H]1C(=O)N(C)c2cnc(Nc3ccc(C(=O)NC4CCN(C)CC4)cc3OC)nc2N1C1CCCC1
How it was run: as §1

[15] = compound: CC[C@@H]1C(=O)N(C)c2cnc(Nc3ccc(C(=O)N[C@H]4CC[C@H](N5CCN(CC6CC6)CC5)CC4)cc3OC)nc2N1C(C)C [volasertib]
How it was run: as §1

[16] = compound: CCn1c(C(=O)N(C2CC2)C2CC2)cc2c3c(ncn3C)c(Nc3cc(C)n(C)n3)nc21
How it was run: as §1

[17] = compound: CCn1cc(-c2ccnc3[nH]c(-c4cccc(CN(C)C)c4)cc23)c(-c2ccc(NC(=O)N(C)C)cc2)n1
How it was run: as §1

[18] = compound: CN1CCC(CNc2ccc3ncc(-c4cccc(OC(F)(F)F)c4)n3n2)CC1
How it was run: as §1

[19] = compound: CN1CCN(CCOc2cc(OC3CCOCC3)c3c(Nc4c(Cl)ccc5c4OCO5)ncnc3c2)CC1 [saracatinib]
How it was run: as §1

[20] = compound: CN1CCN(c2nc(C3=C(c4c[nH]c5ccccc45)C(=O)NC3=O)c3ccccc3n2)CC1 [sotrastaurin]
How it was run: as §1

Measured: log2 fold change

NDUFC2 (UniProt O95298)
inactive: [1] 0.011 | [2] -0.033 | [3] -0.037 | [4] 0.001 | [5] 0.059 | [6] -0.002 | [7] -0.022 | [8] -0.053 | [9] -0.024 | [10] 0.022 | [11] 0.038 | [12] 0.02 | [13] 0.009 | [14] -0.003 | [15] 0.017 | [16] 0.068 | [17] 0.076 | [18] -0.064 | [19] -0.019 | [20] -0.026

NDUFB6 (UniProt O95139)
inactive: [1] -0.036 | [2] 0.001 | [3] 0.014 | [4] -0.092 | [5] -0.006 | [6] -0.014 | [7] -0.009 | [8] 0.057 | [9] 0.026 | [10] -0.038 | [11] 0.041 | [12] 0.002 | [13] -0.003 | [14] 0.057 | [15] 0.014 | [16] -0.04 | [17] -0.147 | [18] 0.101 | [19] 0.012 | [20] 0.041

NDUFA11 (UniProt Q86Y39)
inactive: [1] 0.004 | [2] -0.011 | [3] 0.033 | [4] -0.019 | [5] -0.035 | [6] -0.017 | [7] -0.002 | [8] 0.011 | [9] -0.081 | [10] 0.005 | [11] -0.067 | [12] 0.014 | [13] 0.014 | [14] -0.076 | [15] 0.042 | [16] 0.051 | [17] -0.021 | [18] 0.161 | [19] 0.014 | [20] 0.014

NIPSNAP3A (UniProt Q9UFN0)
inactive: [1] -0.013 | [2] -0.014 | [3] -0.016 | [4] -0.049 | [5] 0.029 | [6] 0.023 | [7] -0.021 | [8] 0.004 | [9] 0.022 | [10] -0.056 | [11] -0.005 | [12] 0.018 | [13] -0.04 | [14] 0.043 | [15] 0.019 | [16] -0.024 | [17] 0.324 | [18] -0.213 | [19] -0.002 | [20] 0.021

NKIRAS2 (UniProt Q9NYR9)
inactive: [1] -0.023 | [2] -0.033 | [3] -0.019 | [4] -0.025 | [5] -0.013 | [6] 0.048 | [7] -0.058 | [8] 0.1 | [9] 0.01 | [10] 0.052 | [11] 0.011 | [12] -0.039 | [13] -0.019 | [14] -0.019 | [15] -0.072 | [16] -0.013 | [17] 0.006 | [18] -0.012 | [19] 0.001 | [20] 0.014

Retrieved one by one from the list above (two):
NDUFA11 (UniProt Q86Y39)
inactive: [1] 0.004 | [2] -0.011 | [3] 0.033 | [4] -0.019 | [5] -0.035 | [6] -0.017 | [7] -0.002 | [8] 0.011 | [9] -0.081 | [10] 0.005 | [11] -0.067 | [12] 0.014 | [13] 0.014 | [14] -0.076 | [15] 0.042 | [16] 0.051 | [17] -0.021 | [18] 0.161 | [19] 0.014 | [20] 0.014

NKIRAS2 (UniProt Q9NYR9)
inactive: [1] -0.023 | [2] -0.033 | [3] -0.019 | [4] -0.025 | [5] -0.013 | [6] 0.048 | [7] -0.058 | [8] 0.1 | [9] 0.01 | [10] 0.052 | [11] 0.011 | [12] -0.039 | [13] -0.019 | [14] -0.019 | [15] -0.072 | [16] -0.013 | [17] 0.006 | [18] -0.012 | [19] 0.001 | [20] 0.014

The results go on.

NDUFB5 (UniProt O43674)
inactive: [1] -0.016 | [2] 0.004 | [3] 0.005 | [4] 0.014 | [5] -0.018 | [6] 0.015 | [7] -0.015 | [8] -0.021 | [9] 0.036 | [10] 0.002 | [11] 0.048 | [12] -0.02 | [13] -0.021 | [14] -0.028 | [15] 0.018 | [16] 0.075 | [17] 0.137 | [18] -0.053 | [19] -0.012 | [20] -0.003

NIF3L1 (UniProt Q9GZT8)
inactive: [1] 0.024 | [2] -0.009 | [3] -0.002 | [4] -0.015 | [5] -0.016 | [6] 0.032 | [7] -0.018 | [8] 0.018 | [9] -0.002 | [10] -0.003 | [11] 0.001 | [12] -0.003 | [13] -0.016 | [14] 0.047 | [15] 0.029 | [16] -0.046 | [17] -0.048 | [18] 0.069 | [19] 0.016 | [20] -0.016

NF1 (UniProt P21359)
inactive: [1] 0.018 | [2] 0.02 | [3] 0.07 | [4] -0.03 | [5] -0.009 | [6] 0.004 | [7] -0.02 | [8] 0.041 | [9] 0.007 | [10] -0.032 | [11] 0.019 | [12] 0.024 | [13] 0.029 | [14] -0.044 | [15] -0.048 | [16] 0.031 | [17] -0.035 | [18] -0.041 | [19] 0.001 | [20] -0.029

NFE2 (UniProt Q16621)
inactive: [1] -0.031 | [2] -0.051 | [3] 0.04 | [4] -0.013 | [5] 0.018 | [6] 0.036 | [7] 0.071 | [8] 0.094 | [9] 0.011 | [10] 0.003 | [11] -0.004 | [12] 0.024 | [13] 0.03 | [14] -0.004 | [15] -0.025 | [16] -0.024 | [17] -0.031 | [18] -0.015 | [19] 0.01 | [20] -0.058

NEK7 (UniProt Q8TDX7)
inactive: [1] 0.041 | [2] -0.041 | [3] 0.063 | [4] -0.016 | [5] 0.034 | [6] -0.015 | [7] -0.048 | [8] -0.043 | [9] 0.053 | [10] 0.002 | [11] 0.086 | [12] 0.024 | [13] 0.002 | [14] -0.006 | [15] -0.091 | [16] -0.025 | [17] -0.13 | [18] 0.041 | [19] 0.013 | [20] 0.04

NIT1 (UniProt Q86X76)
inactive: [1] -0.004 | [2] -0.007 | [3] 0.038 | [4] -0.027 | [5] 0.025 | [6] -0.022 | [7] -0.002 | [8] 0.068 | [9] 0.007 | [10] -0.023 | [11] -0.003 | [12] -0.004 | [13] -0.005 | [14] 0.002 | [15] -0.005 | [16] -0.044 | [17] -0.053 | [18] 0.043 | [19] 0.012 | [20] -0.031

NDUFA9 (UniProt Q16795)
inactive: [1] -0.007 | [2] 0.043 | [3] 0.027 | [4] -0.123 | [5] -0.05 | [6] 0.061 | [7] 0.016 | [8] -0.058 | [9] 0.077 | [10] 0.047 | [11] 0 | [12] 0.083 | [13] 0.03 | [14] -0.012 | [15] 0.041 | [16] 0.036 | [17] 0.032 | [18] -0.216 | [19] -0.022 | [20] 0.095

NDUFAF3 (UniProt Q9BU61)
inactive: [1] -0.007 | [2] -0.005 | [3] 0.048 | [4] -0.015 | [5] -0.074 | [6] -0.014 | [7] 0.024 | [8] 0.041 | [9] -0.045 | [10] 0.007 | [11] -0.016 | [12] -0.008 | [13] 0.151 | [14] -0.017 | [15] -0.015 | [16] 0.037 | [17] -0.044 | [18] -0.023 | [19] -0.017 | [20] 0.007

NF2 (UniProt P35240)
inactive: [1] 0.005 | [2] -0.01 | [3] 0.028 | [4] -0.038 | [5] 0.015 | [6] 0.007 | [7] -0.004 | [8] 0.056 | [9] 0.017 | [10] -0.042 | [11] 0.016 | [12] 0.022 | [13] -0.001 | [14] 0.103 | [15] 0.016 | [16] -0.06 | [17] -0.1 | [18] 0.065 | [19] 0.003 | [20] 0.011

NFATC3 (UniProt Q12968)
inactive: [1] 0.023 | [2] -0.005 | [3] 0.004 | [4] -0.05 | [5] 0.005 | [6] 0.044 | [7] -0.028 | [8] 0.003 | [9] 0.031 | [10] 0.003 | [11] -0.008 | [12] 0.014 | [13] -0.02 | [14] -0.069 | [15] 0.006 | [16] 0.042 | [17] -0.024 | [18] -0.012 | [19] 0.065 | [20] 0

NIPSNAP2 (UniProt O75323)
inactive: [1] -0.013 | [2] -0.011 | [3] 0.069 | [4] 0.027 | [5] 0.064 | [6] -0.006 | [7] -0.021 | [8] -0.007 | [9] 0.054 | [10] 0.02 | [11] 0.079 | [12] 0.086 | [13] 0.018 | [14] -0.018 | [15] -0.023 | [16] -0.034 | [17] -0.015 | [18] -0.181 | [19] 0.007 | [20] -0.015
